Results from patent US20190218308A1.
Numbering of substitutions follows the chain as printed. Results are given in words; binding and its absence hold for the method and conditions named. Some entries that bind do so weakly or less than the wild type.

Legend:
CD39 mutant 3 (human) = molecular target: T1, CD39 mutant 3 (human) (UniProt P49961); assay: flow cytometry, Hek-293T cells expressing mutant 3
T1 sequence: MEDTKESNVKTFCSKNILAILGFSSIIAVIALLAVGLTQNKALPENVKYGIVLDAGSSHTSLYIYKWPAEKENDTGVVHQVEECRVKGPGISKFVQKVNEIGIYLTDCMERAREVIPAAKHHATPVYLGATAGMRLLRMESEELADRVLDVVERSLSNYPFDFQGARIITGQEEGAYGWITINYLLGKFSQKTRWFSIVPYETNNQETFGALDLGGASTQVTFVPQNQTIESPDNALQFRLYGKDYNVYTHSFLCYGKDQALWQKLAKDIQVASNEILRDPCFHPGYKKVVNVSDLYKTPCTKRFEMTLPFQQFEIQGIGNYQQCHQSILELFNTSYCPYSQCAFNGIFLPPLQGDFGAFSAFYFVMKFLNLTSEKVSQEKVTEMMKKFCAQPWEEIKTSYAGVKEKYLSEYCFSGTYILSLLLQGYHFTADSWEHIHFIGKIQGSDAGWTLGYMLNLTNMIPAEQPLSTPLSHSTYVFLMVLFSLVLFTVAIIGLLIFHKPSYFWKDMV

CD39 mutant 6 (human) = molecular target: T2, CD39 mutant 6 (human) (UniProt P49961); assay: flow cytometry, Hek-293T cells expressing mutant 6
T2 sequence: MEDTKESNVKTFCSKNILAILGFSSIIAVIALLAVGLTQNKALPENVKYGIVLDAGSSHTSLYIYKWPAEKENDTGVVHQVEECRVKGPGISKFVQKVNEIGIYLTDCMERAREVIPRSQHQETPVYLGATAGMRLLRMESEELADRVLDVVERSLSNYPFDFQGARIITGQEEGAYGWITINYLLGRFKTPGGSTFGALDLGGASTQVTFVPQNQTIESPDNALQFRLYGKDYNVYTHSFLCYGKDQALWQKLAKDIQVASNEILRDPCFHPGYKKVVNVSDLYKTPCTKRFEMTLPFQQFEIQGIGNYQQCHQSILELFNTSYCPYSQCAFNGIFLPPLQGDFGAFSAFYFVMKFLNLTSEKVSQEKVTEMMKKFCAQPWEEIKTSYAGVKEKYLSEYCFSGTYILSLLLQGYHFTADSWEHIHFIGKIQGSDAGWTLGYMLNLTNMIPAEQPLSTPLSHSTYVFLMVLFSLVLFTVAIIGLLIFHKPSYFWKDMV

CD39 mutant 8 (human) = molecular target: T3, CD39 mutant 8 (human) (UniProt P49961); assay: flow cytometry, Hek-293T cells expressing mutant 8
T3 sequence: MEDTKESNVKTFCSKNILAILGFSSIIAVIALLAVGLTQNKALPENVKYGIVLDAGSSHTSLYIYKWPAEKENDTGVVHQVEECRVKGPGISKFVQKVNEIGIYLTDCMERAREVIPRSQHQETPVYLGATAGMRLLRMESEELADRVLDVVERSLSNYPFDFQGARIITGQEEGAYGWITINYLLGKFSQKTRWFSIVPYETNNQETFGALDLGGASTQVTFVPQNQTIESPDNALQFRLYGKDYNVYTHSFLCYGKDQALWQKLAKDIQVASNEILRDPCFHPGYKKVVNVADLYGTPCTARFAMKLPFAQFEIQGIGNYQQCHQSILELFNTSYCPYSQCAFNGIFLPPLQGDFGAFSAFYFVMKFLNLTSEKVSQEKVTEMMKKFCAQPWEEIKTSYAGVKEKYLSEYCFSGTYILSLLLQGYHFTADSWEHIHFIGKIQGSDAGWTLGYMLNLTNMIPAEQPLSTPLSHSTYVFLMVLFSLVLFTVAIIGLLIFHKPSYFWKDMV

CD39 mutant 16 (human) = molecular target: T4, CD39 mutant 16 (human) (UniProt P49961); assay: flow cytometry, Hek-293T cells expressing mutant 16
T4 sequence: T1 sequence with A118R, A119S, K120Q, H122Q, A123E, Q323A, Q324A, Q327A, E331K

CD39 mutant 18 (human) = molecular target: T5, CD39 mutant 18 (human) (UniProt P49961); assay: flow cytometry, Hek-293T cells expressing mutant 18
T5 sequence: T1 sequence with A118R, A119S, K120Q, H122Q, A123E, Q228A, I230S, D234A, Q238A

Measured: binding

B1: antibody I-399 (antibody, V domains shown)
VH: PVQLQQPGAEVVMPGASVKLSCKASGYTFTSFWMNWMRQRPGQGLEWIGEIDPSDFYTNSNQRFKGKATLTVDKSSSTAYMQLSSLTSEDSAVYFCARGDFGWYFDVWGTGTSVTVSS
VL: EIVLTQSPTTMTSSPGEKITFTCSASSSINSNYLHWYQQKPGFSPKLLIYRTSNLASGVPTRFSGSGSGTSYSLTIGTMEAEDVATYYCQQGSSLPRTFGGGTKLEIK
binds: all assays above
